Measured values published in PubChem BioAssay AID256 (DTP/NCI, 2004).
The list shows only some results of the screen, not a fair sample: it covers a few groups of compounds. Other doses and runs of a compound may be missing. T/C gives the treated animals as a percentage of the vehicle group. Where survival is the endpoint, this PubChem deposit counts one and a half times the control or more as active, and values a quarter to a half above the control carry no call in these data; other NCI protocols may use other cut-offs. Some T/C values are marked as having no survivor count here; that says nothing about deaths at the dose. Schedules are NCI's codes, taken here to give the interval after Q, in days (D) or hours (H), and the number of doses after X. Some schedules carry Z or #; the key to these is not given.

Tested on: CD2F1 mice, L1210 leukemia ip, survival T/C
Test: NCI In Vivo Anticancer Drug Screen. Data for tumor model L1210 Leukemia (intraperitoneal) in CD2F1 (CDF1) mice
Details: T/C endpoint: mean survival time, higher T/C = longer survival
Method in brief: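 Implant tumor; dose compound or vehicle; measure endpoint in both groups; report treated divided by control.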

O=S=NN(CCCl)CCCl
T/C (dose: 0.25 mg/kg/injection, schedule: Q04DX024 (ip), vehicle: saline): 96 % of control [survivor count not shown] | T/C (dose: 0.25 mg/kg/injection, schedule: Q08DX016 (ip), vehicle: saline): 88 % of control [survivor count not shown] | T/C (dose: 0.5 mg/kg/injection, schedule: Q01DX008 (ip), vehicle: saline): 94 % of control [survivor count not shown] | T/C (dose: 0.5 mg/kg/injection, schedule: Q01DX Z (ip), vehicle: carboxymethylcellulose (CMC)): 101 % of control [survivor count not shown] | T/C (dose: 0.5 mg/kg/injection, schedule: Q04DX024 (ip), vehicle: saline): 100 % of control [survivor count not shown] | T/C (dose: 0.5 mg/kg/injection, schedule: Q08DX016 (ip), vehicle: saline): 89 % of control [survivor count not shown] | T/C (dose: 1.0 mg/kg/injection, schedule: Q01DX008 (ip), vehicle: saline): 98 % of control [survivor count not shown] | T/C (dose: 1.0 mg/kg/injection, schedule: Q01DX Z (ip), vehicle: carboxymethylcellulose (CMC)): 102 % of control [survivor count not shown] | T/C (dose: 1.0 mg/kg/injection, schedule: Q04DX024 (ip), vehicle: saline): 101 % of control [survivor count not shown] | T/C (dose: 1.0 mg/kg/injection, schedule: Q08DX016 (ip), vehicle: saline): 91 % of control [survivor count not shown] | T/C (dose: 2.0 mg/kg/injection, schedule: Q01DX008 (ip), vehicle: saline): 98 % of control [survivor count not shown] | T/C (dose: 2.0 mg/kg/injection, schedule: Q01DX009 (ip), vehicle: saline): 108 % of control [survivor count not shown] | T/C (dose: 2.0 mg/kg/injection, schedule: Q01DX009 (sc), vehicle: saline): 93 % of control [survivor count not shown] | T/C (dose: 2.0 mg/kg/injection, schedule: Q01DX Z (ip), vehicle: carboxymethylcellulose (CMC)): 103 % of control [survivor count not shown] | T/C (dose: 2.0 mg/kg/injection, schedule: Q04DX003 (ip), vehicle: saline): 96 % of control [survivor count not shown] | T/C (dose: 2.0 mg/kg/injection, schedule: Q04DX024 (ip), vehicle: saline): 104 % of control [survivor count not shown] | T/C (dose: 2.0 mg/kg/injection, schedule: Q08DX002 (ip), vehicle: saline): 94 % of control [survivor count not shown] | T/C (dose: 2.0 mg/kg/injection, schedule: Q08DX016 (ip), vehicle: saline): 92 % of control [survivor count not shown] | T/C (dose: 4.0 mg/kg/injection, schedule: Q01DX001 (ip), vehicle: saline): 102 % of control [survivor count not shown] | T/C (dose: 4.0 mg/kg/injection, schedule: Q01DX001 (sc), vehicle: saline): 98 % of control [survivor count not shown] | T/C (dose: 4.0 mg/kg/injection, schedule: Q01DX008 (ip), vehicle: saline): 113 % of control [survivor count not shown] | T/C (dose: 4.0 mg/kg/injection, schedule: Q01DX009 (ip), vehicle: saline): 112 % of control [survivor count not shown] | T/C (dose: 4.0 mg/kg/injection, schedule: Q01DX009 (sc), vehicle: saline): 103 % of control [survivor count not shown] | T/C (dose: 4.0 mg/kg/injection, schedule: Q01DX Z (ip), vehicle: carboxymethylcellulose (CMC)): 110 % of control [survivor count not shown] | T/C (dose: 4.0 mg/kg/injection, schedule: Q04DX003 (ip), vehicle: saline): 102 % of control [survivor count not shown] | T/C (dose: 4.0 mg/kg/injection, schedule: Q04DX024 (ip), vehicle: saline): 114 % of control [survivor count not shown] | T/C (dose: 4.0 mg/kg/injection, schedule: Q08DX002 (ip), vehicle: saline): 93 % of control [survivor count not shown] | T/C (dose: 4.0 mg/kg/injection, schedule: Q08DX016 (ip), vehicle: saline): 97 % of control [survivor count not shown] | T/C (dose: 8.0 mg/kg/injection, schedule: Q01DX001 (ip), vehicle: saline): 104 % of control [survivor count not shown] | T/C (dose: 8.0 mg/kg/injection, schedule: Q01DX001 (sc), vehicle: saline): 93 % of control [survivor count not shown] | T/C (dose: 8.0 mg/kg/injection, schedule: Q01DX008 (ip), vehicle: saline): 154 % of control [survivor count not shown] | T/C (dose: 8.0 mg/kg/injection, schedule: Q01DX009 (ip), vehicle: saline): 125 % of control [survivor count not shown] | T/C (dose: 8.0 mg/kg/injection, schedule: Q01DX009 (oral), vehicle: saline): 112 % of control [survivor count not shown] | T/C (dose: 8.0 mg/kg/injection, schedule: Q01DX009 (sc), vehicle: saline): 121 % of control [survivor count not shown] | T/C (dose: 8.0 mg/kg/injection, schedule: Q04DX003 (ip), vehicle: saline): 106 % of control [survivor count not shown] | T/C (dose: 8.0 mg/kg/injection, schedule: Q08DX002 (ip), vehicle: saline): 101 % of control [survivor count not shown] | T/C (dose: 16.0 mg/kg/injection, schedule: Q01DX001 (ip), vehicle: saline): 122 % of control [survivor count not shown] | T/C (dose: 16.0 mg/kg/injection, schedule: Q01DX001 (oral), vehicle: saline): 117 % of control [survivor count not shown] | T/C (dose: 16.0 mg/kg/injection, schedule: Q01DX001 (sc), vehicle: saline): 108 % of control [survivor count not shown] | T/C (dose: 16.0 mg/kg/injection, schedule: Q01DX009 (ip), vehicle: saline): 112 % of control [survivor count not shown] | T/C (dose: 16.0 mg/kg/injection, schedule: Q01DX009 (oral), vehicle: saline): 106 % of control [survivor count not shown] | T/C (dose: 16.0 mg/kg/injection, schedule: Q01DX009 (sc), vehicle: saline): 105 % of control [survivor count not shown] | T/C (dose: 16.0 mg/kg/injection, schedule: Q04DX003 (ip), vehicle: saline): 151 % of control [survivor count not shown] | T/C (dose: 16.0 mg/kg/injection, schedule: Q08DX002 (ip), vehicle: saline): 132 % of control [survivor count not shown] | T/C (dose: 32.0 mg/kg/injection, schedule: Q01DX001 (ip), vehicle: saline): 150 % of control [survivor count not shown] | T/C (dose: 32.0 mg/kg/injection, schedule: Q01DX001 (oral), vehicle: saline): 140 % of control [survivor count not shown] | T/C (dose: 32.0 mg/kg/injection, schedule: Q01DX001 (sc), vehicle: saline): 135 % of control [survivor count not shown] | T/C (dose: 32.0 mg/kg/injection, schedule: Q04DX003 (ip), vehicle: saline): 102 % of control [survivor count not shown] | T/C (dose: 32.0 mg/kg/injection, schedule: Q08DX002 (ip), vehicle: saline): 143 % of control [survivor count not shown]
